Results: PubChem BioAssay AID2685 (National Center for Advancing Translational Sciences (NCATS), 2010)
Some of the results follow. Further columns of the screen follow, without active or inactive calls. Most of these compounds were active or inconclusive in the main read-out, so they are no random draw. The note in brackets gives the kind of curve behind each potency; many fits are weak.

Experiment: qHTS Assay for Lipid Storage Modulators in Drosophila S3 Cells;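 on cell number change: cells counted by Cell Tracker Red CMTPX staining in the red channel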
Conditions: BODIPY lipid droplet fluorescence, 18-24 h; for cell number change: measured here: cell count max response, cells fed with added oleic acid
Summary of the method: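 Drosophila S3 cells got compounds at several concentrations plus oleic acid (400 uM solution). Laser-scanning cytometry with 488 nm excitation read lipid droplets at 500-530 nm and cells at 575-640 nm. Percent activity was relative to 20 uM Triacsin C.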

[1] = measured here: cell number channel AC50, cells fed with added oleic acid
[2] = measured here: lipid fluorescence (Fed channel) AC50, cells fed with added oleic acid

SMILES	cell number change [%]	AC50 [1]	AC50 [2]
Oc1ccc(/C=N/n2cc(-c3ccccc3)[nH]c2=S)cc1	34.9	29.1 µM [rising, single point]	29.1 µM [rising, single point]
COc1ccc(C(=O)NNC(=O)C2CCCN(C3CC(=O)N(c4ccccc4)C3=O)C2)cc1 (stereo unspecified)	32.1	23.1 µM [rising, single point]	–
Cn1c(=O)c2c(nc(Sc3nc4ccccc4n3CC(=O)N3CCCCC3)n2C)n(C)c1=O	–	0.13 µM [rising, single point]	0.58 µM [rising, partial curve]
CCCCc1c(C)[nH]c(C(=O)OCC)c1C	-48.8	–	–
C#CCOCCOCCOCCNc1nc(N2CCN(C(=O)C([C@@H](C)CC)n3cc(C(N)CO)nn3)CC2)nc(N2CCN(C(=O)[C@H](CCC(=O)O)n3cc(C(N)Cc4ccc(O)cc4)nn3)CC2)n1 (stereo partly specified)	-36.6	2.31 µM [falling, full curve]	29.1 µM [falling, single point]
COc1ccccc1CNC(=O)CSCc1cnn(-c2ccccc2)c1-n1cccc1	75.9	2.59 µM [rising, full curve]	5.17 µM [rising, full curve]
C/C(=N\NC(=O)c1ccncc1)c1cc2ccccc2oc1=O	-21.7	–	–
CC1C(=O)CC(c2ccccc2)NC1c1ccccc1 (stereo unspecified)	–	5.8 µM [rising, single point]	–
CCCn1c(C)nc2c(c1=O)c1nc3ccccc3nc1n2CCC1=CCCCC1	-3.75	–	6.51 µM [rising, partial curve]
CC(C)c1ccc(OCC(=O)Nc2cccc3c2CCCC3)cc1	-31.6	5.17 µM [falling, full curve, poor fit]	8.2 µM [falling, partial curve]
O=C(N/N=C/c1ccc(F)cc1)c1sccc1OCc1ccc(F)cc1	-8.25	–	0.651 µM [falling, full curve, poor fit]
O=C(NCC(=O)N1CCN(c2ncccn2)CC1)c1cccs1	-60.6	4.61 µM [falling, partial curve]	6.51 µM [falling, single point]
COc1ccc(-c2cc(C(=O)NC(C)c3ccccn3)c3ccccc3n2)cc1OC (stereo unspecified)	6.43	–	2.91 µM [rising, partial curve]
O=C(CNc1ccc2c(c1)OCO2)N/N=C\c1ccccc1Cl	–	–	2.59 µM [rising, full curve]
O=C1c2ccc3c4c(ccc(c24)C(=O)N1c1cccc(O)c1)CC3	-4.21	–	–
CN(C)C(=O)CN1C(=O)NC2(CCc3ccccc32)C1=O (stereo unspecified)	-4.88	–	3.66 µM [rising, single point]
Cc1ccc(C)c(NC(=S)N2CCC(N(C)CC3CCCO3)CC2)c1 (stereo unspecified)	-16.7	0.517 µM [falling, full curve, poor fit]	1.16 µM [falling, full curve]
Cc1ccc2nc(N3CCN(c4ccccc4)CC3)c(C=O)c(=O)n2c1	66.8	8.2 µM [rising, partial curve]	14.6 µM [rising, partial curve]

Structural class: those above containing an aryl methoxy group (3)
SMILES	cell number change [%]	AC50 [1]	AC50 [2]
COc1ccc(C(=O)NNC(=O)C2CCCN(C3CC(=O)N(c4ccccc4)C3=O)C2)cc1 (stereo unspecified)	32.1	23.1 µM [rising, single point]	–
COc1ccccc1CNC(=O)CSCc1cnn(-c2ccccc2)c1-n1cccc1	75.9	2.59 µM [rising, full curve]	5.17 µM [rising, full curve]
COc1ccc(-c2cc(C(=O)NC(C)c3ccccn3)c3ccccc3n2)cc1OC (stereo unspecified)	6.43	–	2.91 µM [rising, partial curve]

Carrying on:

SMILES	cell number change [%]	AC50 [1]	AC50 [2]
CCOc1ccc(C(CC(=O)O)NC(=O)COc2ccccc2)cc1OC (stereo unspecified)	10.5	4.61 µM [falling, single point]	4.11 µM [falling, single point]
CCOC(=O)CC(=O)CSc1nnc(Cn2c(=O)sc3ccccc32)n1C	-18.2	–	0.82 µM [falling, full curve, poor fit]
O=C(COC(=O)c1ccccn1)Nc1nc(-c2ccccc2)cs1	-22.4	–	6.31 µM [falling, partial curve]
CCN(CC(=O)Nc1ccc(OC)cc1)CC(=O)Nc1ccc(Cl)cc1F	–	–	1.64 µM [rising, partial curve]
CC(=O)c1ccc(OCC(C)C)c(CC(C(N)=O)C(N)=O)c1	3.46	–	5.8 µM [falling, single point]
CCOC(=O)C1CCCN(C(=O)c2ccco2)C1 (stereo unspecified)	6.49	–	–
Cc1cc(C)c2c(-n3cccc3)c(C(=O)NNS(=O)(=O)c3ccc(Cl)cc3)sc2n1	6.9	–	29.1 µM [rising, single point]
CCc1ccc(OCC(=O)NC(NC(=S)Nc2ccc(Cl)cc2)C(Cl)(Cl)Cl)cc1 (stereo unspecified)	-77.3	32.6 µM [falling, single point]	29.1 µM [falling, partial curve]
O=C(Nc1nnc(-c2ccc(Cl)cc2)o1)NC1CCCCC1	24.7	0.651 µM [falling, single point]	–
CCCOc1ccc(-c2csc3ncn(Cc4ccc(C(=O)O)cc4)c(=O)c23)cc1	106	4.11 µM [falling, single point]	5.17 µM [falling, single point]
Cc1ccccc1N=C/C=C1\N(C)c2ccccc2C1(C)C	-23.8	–	29.1 µM [falling, single point]
Cc1cccc2c1N(CC(=O)OC(C)C)C(=O)C2=O	-14.5	–	–
CNc1ccc2nnc(C(F)(F)C(F)(F)C(F)(F)F)n2n1	8.98	–	–
C[C@@H](C(=O)Nc1ccc2ccccc2c1)[C@@H]1C[C@@]1(C)[C@@H](NC(=O)c1ccccc1)c1ccccc1	0.312	0.146 µM [rising, full curve, poor fit]	9.2 µM [rising, partial curve]
C(=N\Nc1ccc2nncn2n1)/c1ccccn1	6.78	0.184 µM [falling, full curve]	0.184 µM [falling, full curve]
Cn1c(SCc2cccc(C(F)(F)F)c2)nnc1-c1ccco1	94.5	6.51 µM [rising, partial curve]	4.11 µM [rising, single point]
Cc1cc(C)c(C2=Nn3c(C)nnc3SC2C)cc1C (stereo unspecified)	-15.2	–	6.51 µM [rising, single point]
Cc1ccc2cc(C#N)c(NCCCNC(=O)C3CCCO3)nc2c1 (stereo unspecified)	–	3.66 µM [rising, partial curve]	5.17 µM [rising, partial curve]
